From the supplement of paper PMC11348887 come the findings set out here.

Structures are written as SMILES. Where a name gives a salt, the structure may show the parent alone. The list shows a part of the results. Most values lie at the level of the controls, where differences are scatter.

The subject of one assay is hPSC-derived cortical neurons (WA09). The assay can be described thus: nucleus roundness z-score vs screen plate; higher = rounder nuclei (more mature). The settings on record: 5 µM; treatment: days 7-14 after plating, readout day 21.
As to `C[n+]1ccccc1/C=N/O` [Pralidoxime chloride], the nucleus roundness z-score came to 0.99.

In turn, `Cc1nc(Nc2cnn(C3CCNCC3)c2)nc2c1N(C)C(=O)c1cc3ccccc3cc1N2C` returned a nucleus roundness z-score of 0.568.

`O=C(O)c1ccc(O)c2ncccc12` registered a nucleus roundness z-score of 1.16.

Turning to `CCOc1cn(-c2ccc(F)cc2C)nc1C(=O)Nc1ccc(Oc2ccnc3cc(OC)c(OC)cc23)c(F)c1`, the nucleus roundness z-score came out at 0.927.

Turning to `Cc1cc(NC(=O)Nc2ccc(N(C)C)cc2)c2cc(F)cc(F)c2n1`, the nucleus roundness z-score was -0.0294.

Compound `CC(C)c1ccc(NC(=O)Cn2cnc3c2c(=O)n(C)c(=O)n3C)cc1` registered a nucleus roundness z-score of 0.208.

The compound `Cc1c(NC(=O)OC[C@@H]2COCCN2)cn2ncnc(Nc3ccc4c(cnn4Cc4cccc(F)c4)c3)c12` registered a nucleus roundness z-score of 0.508.

Compound `CCCCOc1cc(C(=O)OCCN(CC)CC)ccc1N` [Oxybuprocaine HCl] had a nucleus roundness z-score of 0.664.

The compound `OC(CCN1CCCCC1)(c1ccccc1)C1CCCCC1` (stereo not drawn) [Trihexyphenidyl hydrochloride] came in with a nucleus roundness z-score of 0.718.

Take `CCOC(=O)CC(=O)N1CCSC1COc1ccccc1OC` (stereo not drawn) [Moguisteine]: the nucleus roundness z-score is -0.431.

The compound `CNc1nc(-c2ccc3c(N)n[nH]c3c2)cc(N2C[C@@H](C(=O)NC3CCCCC3)CC[C@H]2C)n1` registered a nucleus roundness z-score of -0.915.

Turning to `CN(C)c1ccc(C(=C2C=CC(=[N+](C)C)C=C2)c2ccc(N(C)C)cc2)cc1` [Crystal Violet], the nucleus roundness z-score stood at 2.83.

Turning to `C[C@H](NC(=O)Cc1cc(F)cc(F)c1)C(=O)N[C@H](C(=O)OC(C)(C)C)c1ccccc1`, the nucleus roundness z-score came to 0.502.

The compound `CCN[C@H]1C[C@H](C)S(=O)(=O)c2sc(S(N)(=O)=O)cc21` [Dorzolamide HCl] returned a nucleus roundness z-score of 0.25.

`CC(C)C(=O)Oc1ccc(CO)cc1[C@H](CCN(C(C)C)C(C)C)c1ccccc1` [Fesoterodine Fumarate] came in with a nucleus roundness z-score of 0.0734.

In turn, `CC(C)c1nc(CN(C)C(=O)N[C@@H](CCN2CCOCC2)C(=O)N[C@H](CC[C@H](Cc2ccccc2)NC(=O)OCc2cncs2)Cc2ccccc2)cs1` [Cobicistat (GS-9350)] gave a nucleus roundness z-score of -0.0687.

With `O=C1NCCc2[nH]c(-c3ccncc3)cc21`, the nucleus roundness z-score is -0.453.

Compound `CCC(=O)O[C@@H](O[P@](=O)(CCCCc1ccccc1)CC(=O)N1C[C@H](C2CCCCC2)C[C@H]1C(=O)O)C(C)C` [Fosinopril Sodium] came in with a nucleus roundness z-score of -0.615.

Turning to `CCCOc1ccc(CCc2nc3cc(-c4c(C)noc4C)ccc3n2CCN2CCOCC2)cc1`, the nucleus roundness z-score is -0.259.

In turn, `CN1C(=O)C(Cc2c[nH]c3ccccc23)NC1=S` (stereo not drawn) [Necrostatin-1] gave a nucleus roundness z-score of 0.369.

The compound `O=C(c1ccc(F)cc1)N1CCC[C@H](c2nc(-c3ccc(F)cc3)no2)C1` returned a nucleus roundness z-score of -0.302.

`Cc1ccc(S(=O)(=O)/C=C/C#N)cc1` showed a nucleus roundness z-score of -2.85.

For `COc1ccc2ccc(=O)oc2c1CC=C(C)C` [Osthole], the nucleus roundness z-score was determined as 0.526.

Consider `Nc1ncn([C@@H]2O[C@H](CO)[C@@H](O)[C@H]2O)c(=O)n1` [Azacitidine], for which the nucleus roundness z-score amounted to 0.71.

Take `CC(C)CCn1c(CN2CCN(C(=O)C3CC3)CC2)nc2c1c(=O)n(C)c(=O)n2C`: the nucleus roundness z-score was -1.64.

In the case of `NC(=O)N1CCC(CC(=O)N2CCC([C@H]3c4ncc(Br)cc4CCc4cc(Cl)cc(Br)c43)CC2)CC1` [Lonafarnib], the nucleus roundness z-score was 1.33.

The compound `O=C(O)c1ccc(Nc2ncc3c(n2)-c2ccc(Cl)cc2C(c2c(F)cccc2F)=NC3)cc1` came in with a nucleus roundness z-score of 1.19.

In the case of `O=C([O-])c1ccccc1O.[Na+]` [Sodium salicylate], the nucleus roundness z-score was -1.75.

`Cc1cc(C)nc(SCC(=O)Nc2ncc(Cc3cccc4ccccc34)s2)n1`: the nucleus roundness z-score stood at 0.483.

With `CC(C)Oc1ccc2c(=O)c(-c3ccccc3)coc2c1` [Ipriflavone (Osteofix)], the nucleus roundness z-score came to 0.413.

On to `Oc1c(Cl)cc(Cl)c2cccnc12` [Chloroxine], for which the nucleus roundness z-score came out at 0.659.

`CC(C)NCC(O)c1ccc(NS(C)(=O)=O)cc1` (stereo not drawn) [Sotalol]: the nucleus roundness z-score was -0.228.

Consider `CCCNC(=O)NS(=O)(=O)c1ccc(Cl)cc1` [Chlorpropamide], for which the nucleus roundness z-score is 0.026.

In turn, `CCNC(=O)c1[nH]nc(-c2cc(Cl)c(O)cc2O)c1-c1ccc(OC)cc1` showed a nucleus roundness z-score of -2.62.

On to `OCc1ccccc1` [Benzyl alcohol], for which the nucleus roundness z-score was -0.181.

`Clc1ccc(COC(Cn2ccnc2)c2ccc(Cl)cc2Cl)cc1` (stereo not drawn) [Econazole nitrate] gave a nucleus roundness z-score of -0.0831.

In turn, `CCCC(=O)Nc1ccc(OCC(O)CNC(C)C)c(C(C)=O)c1` (stereo not drawn) [Acebutolol HCl] had a nucleus roundness z-score of 0.794.

For the compound `C#CCN[C@@H]1CCc2ccccc21` [Rasagiline Mesylate], the nucleus roundness z-score was 1.18.

In turn, `O=S(=O)(c1cccc2cnccc12)N1CCCNCC1` [Fasudil (HA-1077) HCl] returned a nucleus roundness z-score of -1.08.

The test system is the same in a further assay. The assay can be described thus: KCl-induced FOS+/EGR-1+ double-positive nuclei fraction z-score (KCl minus unstimulated); higher = stronger activity-induced IEG response. The following applies: 5 µM; treatment: days 7-14 after plating, readout day 21.
As to `C[n+]1ccccc1/C=N/O` [Pralidoxime chloride], the “KCl-induced FOS+/EGR-1+ double-positive nuclei fraction z-score” value was -0.624.

For `Cc1nc(Nc2cnn(C3CCNCC3)c2)nc2c1N(C)C(=O)c1cc3ccccc3cc1N2C`, the “KCl-induced FOS+/EGR-1+ double-positive nuclei fraction z-score” value is 0.00925.

As for `O=C(O)c1ccc(O)c2ncccc12`, the “KCl-induced FOS+/EGR-1+ double-positive nuclei fraction z-score” value was determined as 3.06.

Consider `CCOc1cn(-c2ccc(F)cc2C)nc1C(=O)Nc1ccc(Oc2ccnc3cc(OC)c(OC)cc23)c(F)c1`, for which the “KCl-induced FOS+/EGR-1+ double-positive nuclei fraction z-score” value came to 0.171.

Consider `Cc1cc(NC(=O)Nc2ccc(N(C)C)cc2)c2cc(F)cc(F)c2n1`, for which the “KCl-induced FOS+/EGR-1+ double-positive nuclei fraction z-score” value was -0.387.

Consider `CC(C)c1ccc(NC(=O)Cn2cnc3c2c(=O)n(C)c(=O)n3C)cc1`, for which the “KCl-induced FOS+/EGR-1+ double-positive nuclei fraction z-score” value was found to be 0.254.

Regarding `Cc1c(NC(=O)OC[C@@H]2COCCN2)cn2ncnc(Nc3ccc4c(cnn4Cc4cccc(F)c4)c3)c12`, the “KCl-induced FOS+/EGR-1+ double-positive nuclei fraction z-score” value was 0.0128.

With `CCCCOc1cc(C(=O)OCCN(CC)CC)ccc1N` [Oxybuprocaine HCl], the “KCl-induced FOS+/EGR-1+ double-positive nuclei fraction z-score” value turned out to be 1.33.

Consider `OC(CCN1CCCCC1)(c1ccccc1)C1CCCCC1` (stereo not drawn) [Trihexyphenidyl hydrochloride], for which the “KCl-induced FOS+/EGR-1+ double-positive nuclei fraction z-score” value was -0.417.

As to `CCOC(=O)CC(=O)N1CCSC1COc1ccccc1OC` (stereo not drawn) [Moguisteine], the “KCl-induced FOS+/EGR-1+ double-positive nuclei fraction z-score” value is -0.292.

Regarding `CNc1nc(-c2ccc3c(N)n[nH]c3c2)cc(N2C[C@@H](C(=O)NC3CCCCC3)CC[C@H]2C)n1`, the “KCl-induced FOS+/EGR-1+ double-positive nuclei fraction z-score” value was -0.0383.

Turning to `CN(C)c1ccc(C(=C2C=CC(=[N+](C)C)C=C2)c2ccc(N(C)C)cc2)cc1` [Crystal Violet], the “KCl-induced FOS+/EGR-1+ double-positive nuclei fraction z-score” value is -0.97.

Take `C[C@H](NC(=O)Cc1cc(F)cc(F)c1)C(=O)N[C@H](C(=O)OC(C)(C)C)c1ccccc1`: the “KCl-induced FOS+/EGR-1+ double-positive nuclei fraction z-score” value is 0.197.

Turning to `CCN[C@H]1C[C@H](C)S(=O)(=O)c2sc(S(N)(=O)=O)cc21` [Dorzolamide HCl], the “KCl-induced FOS+/EGR-1+ double-positive nuclei fraction z-score” value was found to be 1.69.

As to `CC(C)C(=O)Oc1ccc(CO)cc1[C@H](CCN(C(C)C)C(C)C)c1ccccc1` [Fesoterodine Fumarate], the “KCl-induced FOS+/EGR-1+ double-positive nuclei fraction z-score” value is -0.773.

As to `CC(C)c1nc(CN(C)C(=O)N[C@@H](CCN2CCOCC2)C(=O)N[C@H](CC[C@H](Cc2ccccc2)NC(=O)OCc2cncs2)Cc2ccccc2)cs1` [Cobicistat (GS-9350)], the “KCl-induced FOS+/EGR-1+ double-positive nuclei fraction z-score” value was -0.258.

On to `O=C1NCCc2[nH]c(-c3ccncc3)cc21`, for which the “KCl-induced FOS+/EGR-1+ double-positive nuclei fraction z-score” value is -0.206.

For the compound `CCC(=O)O[C@@H](O[P@](=O)(CCCCc1ccccc1)CC(=O)N1C[C@H](C2CCCCC2)C[C@H]1C(=O)O)C(C)C` [Fosinopril Sodium], the “KCl-induced FOS+/EGR-1+ double-positive nuclei fraction z-score” value is -0.0563.

With `CCCOc1ccc(CCc2nc3cc(-c4c(C)noc4C)ccc3n2CCN2CCOCC2)cc1`, the “KCl-induced FOS+/EGR-1+ double-positive nuclei fraction z-score” value stood at 0.839.

Take `CN1C(=O)C(Cc2c[nH]c3ccccc23)NC1=S` (stereo not drawn) [Necrostatin-1]: the “KCl-induced FOS+/EGR-1+ double-positive nuclei fraction z-score” value came out at 0.244.

As for `O=C(c1ccc(F)cc1)N1CCC[C@H](c2nc(-c3ccc(F)cc3)no2)C1`, the “KCl-induced FOS+/EGR-1+ double-positive nuclei fraction z-score” value turned out to be 0.0232.

With `Cc1ccc(S(=O)(=O)/C=C/C#N)cc1`, the “KCl-induced FOS+/EGR-1+ double-positive nuclei fraction z-score” value came out at 0.0817.

`COc1ccc2ccc(=O)oc2c1CC=C(C)C` [Osthole]: the “KCl-induced FOS+/EGR-1+ double-positive nuclei fraction z-score” value was -1.08.

As to `Nc1ncn([C@@H]2O[C@H](CO)[C@@H](O)[C@H]2O)c(=O)n1` [Azacitidine], the “KCl-induced FOS+/EGR-1+ double-positive nuclei fraction z-score” value worked out at 0.301.

On to `CC(C)CCn1c(CN2CCN(C(=O)C3CC3)CC2)nc2c1c(=O)n(C)c(=O)n2C`, for which the “KCl-induced FOS+/EGR-1+ double-positive nuclei fraction z-score” value is -0.0383.

Take `NC(=O)N1CCC(CC(=O)N2CCC([C@H]3c4ncc(Br)cc4CCc4cc(Cl)cc(Br)c43)CC2)CC1` [Lonafarnib]: the “KCl-induced FOS+/EGR-1+ double-positive nuclei fraction z-score” value amounted to 0.256.

With `O=C(O)c1ccc(Nc2ncc3c(n2)-c2ccc(Cl)cc2C(c2c(F)cccc2F)=NC3)cc1`, the “KCl-induced FOS+/EGR-1+ double-positive nuclei fraction z-score” value came to 1.38.

For the compound `O=C([O-])c1ccccc1O.[Na+]` [Sodium salicylate], the “KCl-induced FOS+/EGR-1+ double-positive nuclei fraction z-score” value amounted to 0.793.

As for `Cc1cc(C)nc(SCC(=O)Nc2ncc(Cc3cccc4ccccc34)s2)n1`, the “KCl-induced FOS+/EGR-1+ double-positive nuclei fraction z-score” value worked out at 0.638.

Consider `CC(C)Oc1ccc2c(=O)c(-c3ccccc3)coc2c1` [Ipriflavone (Osteofix)], for which the “KCl-induced FOS+/EGR-1+ double-positive nuclei fraction z-score” value came to 0.498.

For `Oc1c(Cl)cc(Cl)c2cccnc12` [Chloroxine], the “KCl-induced FOS+/EGR-1+ double-positive nuclei fraction z-score” value was 0.116.

`CC(C)NCC(O)c1ccc(NS(C)(=O)=O)cc1` (stereo not drawn) [Sotalol]: the “KCl-induced FOS+/EGR-1+ double-positive nuclei fraction z-score” value was determined as 0.213.

For the compound `CCCNC(=O)NS(=O)(=O)c1ccc(Cl)cc1` [Chlorpropamide], the “KCl-induced FOS+/EGR-1+ double-positive nuclei fraction z-score” value was 0.669.

For `CCNC(=O)c1[nH]nc(-c2cc(Cl)c(O)cc2O)c1-c1ccc(OC)cc1`, the “KCl-induced FOS+/EGR-1+ double-positive nuclei fraction z-score” value is -1.64.

On to `OCc1ccccc1` [Benzyl alcohol], for which the “KCl-induced FOS+/EGR-1+ double-positive nuclei fraction z-score” value was -0.472.

As for `Clc1ccc(COC(Cn2ccnc2)c2ccc(Cl)cc2Cl)cc1` (stereo not drawn) [Econazole nitrate], the “KCl-induced FOS+/EGR-1+ double-positive nuclei fraction z-score” value is 0.206.

Regarding `CCCC(=O)Nc1ccc(OCC(O)CNC(C)C)c(C(C)=O)c1` (stereo not drawn) [Acebutolol HCl], the “KCl-induced FOS+/EGR-1+ double-positive nuclei fraction z-score” value was -0.179.

On to `C#CCN[C@@H]1CCc2ccccc21` [Rasagiline Mesylate], for which the “KCl-induced FOS+/EGR-1+ double-positive nuclei fraction z-score” value was determined as 1.2.

For `O=S(=O)(c1cccc2cnccc12)N1CCCNCC1` [Fasudil (HA-1077) HCl], the “KCl-induced FOS+/EGR-1+ double-positive nuclei fraction z-score” value is -1.74.
